The values that follow come from paper PMC7599914.

The chains behind the UniProt entries cited, without tags or fusion partners. Residues count along the entry.
UniProt Q9Z0W1, residues 32-427: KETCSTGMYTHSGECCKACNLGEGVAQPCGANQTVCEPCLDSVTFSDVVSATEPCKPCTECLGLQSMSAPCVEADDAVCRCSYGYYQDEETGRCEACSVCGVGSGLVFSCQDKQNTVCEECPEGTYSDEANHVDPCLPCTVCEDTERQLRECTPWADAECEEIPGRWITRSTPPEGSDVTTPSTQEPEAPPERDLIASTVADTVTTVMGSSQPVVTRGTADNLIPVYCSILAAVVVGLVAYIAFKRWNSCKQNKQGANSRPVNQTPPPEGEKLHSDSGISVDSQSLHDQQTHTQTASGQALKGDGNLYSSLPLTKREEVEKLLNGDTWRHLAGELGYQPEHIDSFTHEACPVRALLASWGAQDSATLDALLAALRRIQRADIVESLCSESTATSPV

Results are given in words; binding and its absence hold for the method and conditions named. In cells and extracts the contact can be indirect. Some entries that bind do so weakly or less than the wild type.

The target in test [1] is p75 neurotrophin receptor (mouse (endogenous in Tibialis anterior muscle)) (UniProt Q9Z0W1). Description: condition: only nuclear extract of muscle from wild-type (WT) mice; co-IP; 1 mg nuclear extract of Tibialis anterior from wild-type (WT) mice; rabbit anti-p75NTR (10 ug) and protein A-agarose, 4 °C; blot for p75NTR and necdin.
For test [2] the target is unchanged. The test can be described thus: co-IP; 1 mg nuclear extract of Tibialis anterior from mdx mice; rabbit anti-p75NTR (10 ug) and protein A-agarose, 4 °C; blot for p75NTR and necdin.

B1: necdin (protein, UniProt P25233 1-325)
chain: MSEQSKDLSDPNFAAEVPDCEMQDSDAVPVGIPPPASLAANLAGPPCAPEGPMAAQQASPPPEERIEDVDPKILQQAAEEGRAHQPQSPARPIPAPPAPAQLVQKAHELMWYVLVKDQKRMVLWFPDMVKEVMGSYKKWCRSILRRTSVILARVFGLHLRLTNLHTMEFALVKALSPEELDRVALNNRMPMTGLLLMILSLIYVKGRGAREGAVWNVLRILGLRPWKKHSTFGDVRKIITEEFVQQNYLKYQRVPHIEPPEYEFFWGSRANREITKMQIMEFLARVFKKDPQAWPSRYREALEQARALREANLAAQAPRSSVSED
With B1, the binding entry is “no binding” in test [1] and “binds” in test [2].
